No constants are given. Whether binding was seen depends on the method and setting. In cells and extracts the contact can be indirect. Some binding calls cover weakened binding; strength is not graded here. Where a sequence is shown, tags or fusion partners need not be part of it. One block for each binder: values may come before it.
Target: T1, CTCF (mouse (endogenous in testis)) (UniProt Q61164)
T1 sequence: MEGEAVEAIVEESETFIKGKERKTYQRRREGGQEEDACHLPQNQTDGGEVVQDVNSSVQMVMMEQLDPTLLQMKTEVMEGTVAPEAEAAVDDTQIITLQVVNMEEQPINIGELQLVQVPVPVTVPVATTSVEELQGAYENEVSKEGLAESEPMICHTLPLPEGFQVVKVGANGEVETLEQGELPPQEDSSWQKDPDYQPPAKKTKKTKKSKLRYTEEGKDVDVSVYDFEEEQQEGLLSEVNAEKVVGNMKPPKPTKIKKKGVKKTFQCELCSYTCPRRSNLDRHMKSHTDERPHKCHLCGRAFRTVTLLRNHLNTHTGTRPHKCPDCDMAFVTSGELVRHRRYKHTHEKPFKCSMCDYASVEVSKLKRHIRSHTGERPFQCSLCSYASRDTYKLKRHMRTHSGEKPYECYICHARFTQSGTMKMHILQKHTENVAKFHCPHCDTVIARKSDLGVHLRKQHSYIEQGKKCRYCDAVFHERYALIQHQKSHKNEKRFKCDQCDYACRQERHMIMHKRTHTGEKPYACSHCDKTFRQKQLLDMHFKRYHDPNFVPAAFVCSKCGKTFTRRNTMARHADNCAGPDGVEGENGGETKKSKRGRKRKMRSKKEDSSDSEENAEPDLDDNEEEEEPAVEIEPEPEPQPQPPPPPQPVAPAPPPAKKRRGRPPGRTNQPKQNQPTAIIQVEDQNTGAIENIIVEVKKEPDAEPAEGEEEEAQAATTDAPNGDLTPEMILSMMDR
Experiment: co-IP; CTCF immunoprecipitated from mouse testis nuclear lysates (Pierce IP buffer, 1.5 mM MgCl2, 100 U/ml Benzonase, 4 °C), wild-type or FLAG-tagged REC8 mice; immunoblot with REC8 or FLAG antibody; normal rabbit IgG as negative control

binding: binds
B1: REC8 (protein, UniProt Q8C5S7 1-591)
chain: MFYYPNVLQRHTGCFATIWLAATRGSRLVKREYLNVNVVKTCEEILNYVLVRVQPPVAGLPRPRFSLYLSAQLQIGVIRVYFQQCQYLVEDIQHILEHLHRAQLRIRIDMEEADLPSLLLPNCLAMMETLEDAPEPFFGKMSVDPRLPSPFDIPQIRHLLEAATPEKTRKETLPEATPDPRKPDRTLATVQSPEVITLQEAEPIRMLQIEGEQDLPEISRGDLELLIAEKDDAILLEERQRGRLLRQRRASLPLDESREEPRALEGAGLVSALSPPAPAQVEGIQEALPGQVFPPEVQKMTGWEPGALLTEVTPPQELRLPAPPSTEKRLPSLQRPLPRRHRRRQLLFWDKETQISREKFEEQLQTGAHCWEYPVAQPPKRMLTSPAELFRTPTLSGWLPPELLGLWTHCAQVPQRMLRQRPQLETEETVEEERAADEEERRKTEALSEIEVLREAQEPSGPLMLSSELSLEAAEDEKSRTSLIPPEWWAWSEEGQPEPPALPMLPELPEVPMEMPPRPELSSEAVLRAVALKLQANKELDFSSLVPPLSPRKLASRVFYLLLVLSTQKILLVEQQKPYGPLLIRPGPKFP

binding: binds
B2: FLAG-tagged REC8 (protein, UniProt Q8C5S7 1-591)
chain: B1 chain

— PMC13416154
